Hit rate of the full screen: of about 410,000 compounds, about 18,000 (4.4%) were called active. The shares of active, inactive and inconclusive entries below differ from those in the screen. Cut-off read from the data, not from the text of the source: active = activity change below about -60%; inconclusive = no clear call, values can overlap the other calls; inactive = above about -39%.
test: qHTS Assay for inhibitors of the human cytomegalovirus (HCMV); settings: HFF cells, HCMV-luciferase reporter, 72 h; at 57.5 µM; stronger effect = lower value
Outline: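 Cell-based, HFFs, 1000 cells/well, 16 h 37C; cpds in DMSO + HCMV-luc, MOI 1 PFU/cell; 72 h 37C; OneGlo luminescence after 5 min RT; norm. to buffer vs Salinomycin 10uM.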
% is set by controls: 0 for no effect and ±100 for the full control effect.

SMILES	activity change, negative = inhibition
C/C=C/Cn1c(N2CCCCCC2)nc2c1c(=O)[nH]c(=O)n2C	inconclusive: -41%
CC1(C(=O)NS(=O)(=O)c2ccc(F)cc2F)CCN1C(=O)C1(c2ccc(Cl)cc2)CC1 (stereo not given)	inconclusive: -52.2%
CCOC(=O)c1c(CC(C)C)csc1/N=C/C1=C(O)CCCC1=O	active: -98.2%
CCOc1ccc(-c2cc(C(=O)Nc3cccc(C(F)(F)F)c3)[nH]n2)c(C)c1	inconclusive: -44.4%
CCOc1ccccc1C(=O)Nc1cc(=O)n(C)c(=O)n1C	inconclusive: -51.7%
O=C(O)c1ccc(N2C(=O)c3ccc(C(=O)c4cccc([N+](=O)[O-])c4)cc3C2=O)cc1	inconclusive: -48%
O=C(Nc1cc(F)c(Br)cc1F)c1ccc(Cl)cc1	inactive: 81.2%
Fc1ccc(Nc2nc(SCc3cccc(Cl)c3)nc3ccccc23)cc1	active: -94.8%
O=C(O)c1cccc(C(=O)O)c1S(=O)Cc1ccccc1 (stereo not given)	active: -66%
CCN(CC)S(=O)(=O)c1ccc2c(c1)nc(CN(C)C(=O)Nc1ccc(F)cc1)n2C	inactive: 3.57%
CN(C)c1ccc(/C=[N+](\[O-])C2N(c3ccccc3)C(=S)SC2(C)C)cc1 (stereo not given)	inconclusive: -41.2%
COc1ccc(CCNC(=S)c2ccccc2)cc1OC	inconclusive: -52.4%
COc1cc(NC(=O)c2cccs2)ccc1NC(=O)c1ccccc1Cl	inconclusive: -55.6%
Cc1cccc(C2NC(c3cccc(C)c3)C([N+](=O)[O-])C(C)(C)C2[N+](=O)[O-])c1 (stereo not given)	inconclusive: -49.3%
Cc1noc(C(C)C)c1C(=O)Nc1ccc(-c2nnc3n2CCCCC3)cc1	inactive: 52.4%
O=C1N(Cc2cccc(Cl)c2)C[C@@H]2C[C@@H](c3ccsc3)N3CCC[C@@]123	inconclusive: -42.3%
CC(C)(C)c1cccc(Cn2nnc3ccccc32)c1O	inconclusive: -48.6%
COc1cc(C)ccc1OCc1cc(C(=O)NC2CCOCC2)no1	inactive: 28.8%
O=C(CN1C(=O)c2ccccc2S1(=O)=O)c1ccc(Cl)cc1Cl	active: -91.5%
CCc1cc(-c2n[nH]c(C)c2-c2ccccc2Cl)c(O)cc1OC	inconclusive: -40.6%
Cc1ccc(SC(C)C(=O)Nc2ccncc2)cc1 (stereo not given)	inconclusive: -46.1%
Cn1nccc1C(=O)N1CCCC(C(=O)c2ccc(C(F)(F)F)cc2)C1 (stereo not given)	inactive: -24.2%
COc1ccc(CNC(=O)Cn2c(=O)c3cccn3c3ccccc32)cc1	inactive: -19.7%
CCc1cc2c3c(c1)C(C)CC(C)(C)N3C(=O)C2=O (stereo not given)	inconclusive: -41.9%
COc1ccc(CN2CCc3c([nH]c4ccccc34)C2)cc1Br	inconclusive: -52.1%
CCc1ccccc1NC(=S)N(CCCN(C)C)Cc1cc2cc3c(cc2[nH]c1=O)OCO3	active: -75.2%
CCOc1cc(C#N)c(NC(=O)c2ccc(OC)c(S(=O)(=O)N3CCN(c4ccccc4)CC3)c2)cc1OCC	inactive: -9.07%
CC(C)N(Cc1ccccc1)S(=O)(=O)c1n[nH]c(C(C)(C)C)n1	inconclusive: -42.9%

SMILES	activity change, negative = inhibition
COc1cnn(-c2ccccc2)c(=O)c1SCc1ccc(Cl)cc1Cl	inconclusive: -46.3%
O=C(Nc1ccc(F)cc1)C1CCN(S(=O)(=O)c2cccs2)CC1	inconclusive: -51.8%
C=CCc1c(OC)ccc2ccc(=O)oc12	inconclusive: -44.4%
Cc1oc2cc3oc(=O)c(CC(=O)N4CCCCC4)c(C)c3cc2c1C	active: -70.8%
COc1cc(OC)c2cc(C(=O)N/N=C/c3ccccc3O)[nH]c2c1	active: -95.9%
CC(=O)N1CCc2cc(S(=O)(=O)NCc3ccc(C)cc3)ccc21	inconclusive: -56.8%
CCCCC(=O)N1CCN(c2nc3ccc(F)cc3s2)CC1	inconclusive: -43.2%
Cc1ccc(S(=O)(=O)N2CCN(C(=O)c3nn(C(C)C)c(=O)c4ccccc34)CC2)cc1C	inconclusive: -49.9%
Cc1ccc(S(=O)(=O)N2CCN(c3ccc(C(=O)N4CCOCC4)cc3[N+](=O)[O-])CC2)cc1	inconclusive: -41.4%
O=C(NCc1ccccn1)c1cc(-c2ccccc2)nc2ccccc12	inactive: 53.7%
COc1ccc(CN2CC(C(N)=O)Oc3ccccc32)cc1F (stereo not given)	inconclusive: -43.9%
Cc1ccc(OCCNC(=O)/C=C/c2ccco2)cc1C	inactive: -2.39%
CCCCn1cnc2cc(NCc3cccc(OC)c3O)ccc21	inactive: -36.6%
C[C@H](CO)NC(=O)c1[nH]cnc1C(=O)Nc1ccc(CNC(=O)OC(C)(C)C)cc1	inactive: -11.2%
O=S1(=O)CCN(Cc2ccc(Cl)c(C(F)(F)F)c2)CC1	inactive: 0.243%
c1ccc(CNc2nc(NCc3ccccc3)c3sccc3n2)cc1	active: -80%
COC(=O)C1=C(c2cccc(OCc3ccccc3)c2)C[C@@H]2CC[C@H]1N2C(=O)NCCOc1ccccc1	inactive: -20.3%
CC(=O)OC1=CC[C@H]2[C@@H]3CC[C@H]4C[C@H](OC(C)=O)[C@@H](OC(C)=O)C[C@]4(C)[C@H]3CC[C@]12C	inconclusive: -46.6%
Cc1ccc(S(=O)(=O)N2CCN(Cc3ccccc3)CC2)c(C)c1NS(C)(=O)=O	inactive: 2.11%
Cc1ccccc1C(=O)Nc1cccc(NC(=O)c2ncn[nH]2)c1	inactive: 14%
COc1ccc(-n2c(=O)c3c4c(sc3n(CC(=O)N3CCCCC3C)c2=O)CCC4)c(OC)c1 (stereo not given)	inactive: -18.5%
CCOc1cccc(/C=C/c2ccc3cccc(O)c3n2)c1O	active: -100%
OC(COC(c1ccc(F)cc1)c1ccc(F)cc1)CN1CCCC(C(F)(F)F)C1 (stereo not given)	inconclusive: -48.2%
Cc1ccc(Cl)cc1NC(=O)c1cc2c(=O)n3cccc(C)c3nc2n1C	inconclusive: -49.8%
C/C(=N\NC(=S)NC1CCCCC1)c1ccccc1	inconclusive: -51.2%
CCN(CC)CCCNC(=O)CNC(=O)c1nn(-c2ccc(OC)cc2OC)c(=O)c2ccccc12	inconclusive: -53%
CCCN1C(=O)SC(CC(=O)Nc2ccccc2)C1=O (stereo not given)	inconclusive: -44.1%

Source: PubChem BioAssay AID1259415 (National Center for Advancing Translational Sciences (NCATS), 2018)
